We go through one substance from PMC8602290.

Amino acid sequences for entries named in this document (tags omitted). A change or cut given only in a name is not applied to a line headed by its entry. Chains listed by the source or under a name are the forms on record and can include a tag or linker. Residues count along the entry.
N-terminal substrate-binding MATH domain of SPOP (SPOP^MATH), bait of the tandem affinity purification (O43791, residues 31-161): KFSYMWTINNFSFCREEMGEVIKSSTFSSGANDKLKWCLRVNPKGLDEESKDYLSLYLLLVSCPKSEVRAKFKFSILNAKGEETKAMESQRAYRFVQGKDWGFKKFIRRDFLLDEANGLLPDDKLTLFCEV
PCa-associated mutant SPOP^MATH(F102C), control bait of the tandem affinity purification (O43791, form named): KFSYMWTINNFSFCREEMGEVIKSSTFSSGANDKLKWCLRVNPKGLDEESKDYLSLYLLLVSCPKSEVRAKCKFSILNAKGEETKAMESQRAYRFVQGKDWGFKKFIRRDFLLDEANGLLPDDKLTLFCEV
UniProt Q13283: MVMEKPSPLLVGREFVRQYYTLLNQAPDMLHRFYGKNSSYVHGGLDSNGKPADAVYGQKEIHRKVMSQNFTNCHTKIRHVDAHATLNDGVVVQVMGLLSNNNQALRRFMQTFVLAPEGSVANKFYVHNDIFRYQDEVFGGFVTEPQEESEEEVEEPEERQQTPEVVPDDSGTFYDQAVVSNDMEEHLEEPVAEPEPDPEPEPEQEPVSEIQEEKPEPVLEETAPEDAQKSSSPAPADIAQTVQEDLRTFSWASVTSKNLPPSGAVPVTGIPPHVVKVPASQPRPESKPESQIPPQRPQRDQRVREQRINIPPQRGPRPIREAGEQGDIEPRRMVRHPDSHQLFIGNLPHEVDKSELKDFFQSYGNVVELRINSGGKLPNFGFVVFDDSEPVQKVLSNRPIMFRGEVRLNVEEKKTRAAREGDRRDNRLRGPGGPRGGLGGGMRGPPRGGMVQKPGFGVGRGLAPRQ

The target in assay [1] is N-terminal substrate-binding MATH domain of SPOP (SPOP^MATH), bait of the tandem affinity purification (UniProt O43791). Nature of the assay: affinity purification with mass spectrometry; tandem affinity purification (TAP-MS) of SPOP^MATH or SPOP^MATH(F102C) from 22Rv1 cells.
For assay [2], the target named is PCa-associated mutant SPOP^MATH(F102C), control bait of the tandem affinity purification (UniProt O43791). Described as above.

No constants are given. Whether binding was seen depends on the method and setting. In cells and extracts the contact can be indirect. A yes stands for co-enrichment or nearness to the bait. Other partners may have been found. For some assays here: A no says only that the protein was not detected with the bait.

As for “GTPase Activating Protein (SH3 Domain) Binding Protein 1 (G3BP1), endogenous in 22Rv1 cells (from UniProt Q13283 1-466)”, the binding result in assay [1] is “binds”; in assay [2] it was “no binding”.
